# Experimental data: PMC6933522
# By UniProt entry, the sequences of proteins in these tests, tags left out.
# UniProt Q9Y696: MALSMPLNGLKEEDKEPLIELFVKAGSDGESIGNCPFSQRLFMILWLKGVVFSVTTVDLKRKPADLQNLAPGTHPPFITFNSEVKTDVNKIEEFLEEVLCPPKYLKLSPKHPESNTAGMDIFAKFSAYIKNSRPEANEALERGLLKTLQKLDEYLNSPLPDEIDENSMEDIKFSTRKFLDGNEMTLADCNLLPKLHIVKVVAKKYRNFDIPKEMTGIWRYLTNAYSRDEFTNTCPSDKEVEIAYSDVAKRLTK
# UniProt Q8WUM4: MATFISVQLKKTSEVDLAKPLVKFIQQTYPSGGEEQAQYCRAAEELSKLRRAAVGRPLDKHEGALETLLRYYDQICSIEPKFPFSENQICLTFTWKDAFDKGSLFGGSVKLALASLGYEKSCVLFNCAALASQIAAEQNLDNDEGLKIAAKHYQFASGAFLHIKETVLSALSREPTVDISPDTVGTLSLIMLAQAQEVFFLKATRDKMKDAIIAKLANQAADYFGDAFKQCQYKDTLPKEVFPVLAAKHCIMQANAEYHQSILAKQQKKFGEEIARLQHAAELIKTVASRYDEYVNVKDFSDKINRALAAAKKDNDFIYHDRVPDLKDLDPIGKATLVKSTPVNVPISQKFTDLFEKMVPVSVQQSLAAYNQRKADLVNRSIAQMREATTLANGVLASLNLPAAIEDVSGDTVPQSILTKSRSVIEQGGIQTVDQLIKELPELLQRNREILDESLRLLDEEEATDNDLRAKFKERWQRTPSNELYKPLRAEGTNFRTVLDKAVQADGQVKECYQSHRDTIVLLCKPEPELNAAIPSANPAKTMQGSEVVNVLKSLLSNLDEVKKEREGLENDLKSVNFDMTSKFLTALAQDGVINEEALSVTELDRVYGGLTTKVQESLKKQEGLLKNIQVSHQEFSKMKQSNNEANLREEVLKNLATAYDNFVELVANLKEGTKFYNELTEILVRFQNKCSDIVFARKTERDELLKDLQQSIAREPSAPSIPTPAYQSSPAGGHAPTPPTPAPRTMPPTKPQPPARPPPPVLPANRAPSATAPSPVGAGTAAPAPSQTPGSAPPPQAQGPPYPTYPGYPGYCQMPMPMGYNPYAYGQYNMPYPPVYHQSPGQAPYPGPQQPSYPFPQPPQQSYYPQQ
# No constants are given. Whether binding was seen depends on the method and setting. In cells and extracts the contact can be indirect. Some results given as binding are weak or reduced against the parent protein; the word gives no strength.
# Key:
# [1] = target: CLIC4 (endogenous) (human (endogenous in HeLa S3)) (UniProt Q9Y696); assay: proximity ligation; Duolink in situ PLA on fixed HeLa S3 cells arrested at cytokinesis; pairs of primary antibodies to endogenous CLIC4 and anillin, ALIX or ezrin; single primary antibody as control
# [2] = target: CLIC4-GFP (human) (UniProt Q9Y696); assay: co-IP; sensitive GFP-trap pull-down under low detergent (0.01% Triton X-100 in PBS); lysates of stable GFP or CLIC4-GFP HeLa S3 cells arrested at monopolar cytokinesis; GFP-Trap_A beads 3 h at 4 C; Western blot
substance,measurement,setting,value
ALIX (from UniProt Q8WUM4 1-868),binding,[1],binds
same,binding,[2],binds
